Reference: patent publication US5574059A, “Treating disorders mediated by vascular smooth muscle cell proliferation” (priority 1995, dated 1996)
At least one compound was matched to its structure with a doubt left.

Assays:
[1] = Example III: patient with coronary artery disease, angioplasty; type: in vivo, human; conditions: idazoxan 50 mg/day continued for 3 months; substitutes, dose not stated
Experimental: A person presents with the onset of chest pain on exertion. […] Ten days before angioplasty, the patient is begun on 75 or 100 mg/day of idazoxan. […] Treatment with 50 mg/day idazoxan is continued for 3 months.

[2] = Example IV: patient with fibromuscular dysplasia of the renal artery, angioplasty; type: in vivo, human; conditions: idazoxan 75 mg/day; UK 14,304 60, naphazoline 125, cirazoline 60, agmatine 900 mg/day
[3] = system: I2 imidazoline receptors; test: inhibition of 3H-idazoxan (5 nM) binding to rat aortic smooth muscle cell membranes; conditions: Table 2
Experimental: Binding to I2 imidazoline receptors is determined by the following assay. Membranes are prepared from cultured cells for ligand binding as described in Regunathan, S., et al, Biochem. Pharmacol. 45, 1667-1675 (1993) and Regunathan, S., et al, J. Neurosci. Res. 34, 681-688 (1993) and the disclosure in these on this is incorporated herein by reference. In particular, harvested rat aortic smooth muscle cells are homogenized in Hepes-sucrose buffer (pH 7.4) with a Teflon-glass homogenizer and centrifuged at 1000 × g for 10 minutes. The pellets are suspended in ice-cold Tris-HCl buffer (pH 7.7) with 5mM ethylene diamine tetracetic acid and homogenized using a Polytron (Brinkman Instruments) for 10 seconds. The homogenate is centrifuged at 40,000 × g for 30 minutes to produce a membrane pellet. The membrane pellet is washed three times by resuspending in buffer and re-centrifuging. […] Filters are suspended in scintillation fluid and radioactivity counted in a liquid scintillation counter. […]
Primary cultures of rat-aortic smooth muscle cells were prepared by a modification (described in Erlinge, Do, et al, Am. J. Physiol. 265, H1089-1097, 1993) of the method of Meyer-Lehnert and Schrier (Meyer-Lehnert, H., et al, Hypertension 13,350-361, 1989), the disclosure of these cited articles being incorporated herein by reference. […] Cell viability was determined by trypan blue exclusion.

[4] = Example I: patient with intermittent claudication, iliac artery plaques; type: in vivo, human; conditions: over 30 days oral; idazoxan 50 and 75 mg/day, UK 14,304 125, naphazoline 125, cirazoline 75, agmatine 900 mg/day
Description: A person presents with progressive symptoms of intermittent claudication in both legs.

[5] = Example V: patient with Type I diabetes mellitus, overgrowth of retinal vessels; type: in vivo, human; conditions: idazoxan 75 mg/day; UK 14,304 60, naphazoline 125, cirazoline 60, agmatine 900 mg/day
Description: A person with Type I diabetes mellitus and maintained on insulin presents with progressive symptoms of loss of visual acuity bilaterally with evidence on opthalmascopic examination of overgrowth of retinal vessels and hemorrhages.

[6] = Example II: patient with narrowing of right common carotid artery, balloon angiography; type: in vivo, human; conditions: idazoxan 50 or 75 mg/day two weeks before and 3 months after balloon angiography; UK 14,304 125, cirazoline 60, naphazoline 125, agmatine 900 mg/day
Experimental: A person presents with a history of intermittent brief episodes of transient monocular blindness in the right eye associated with clumsiness and weakness of the left arm and leg. Angiography indicates substantial narrowing of the right common carotid artery. They are with treated with idazoxan at a dosage of 50 or 75 mg/day for two weeks preceding balloon angiography and for 3 months thereafter.

[7] = system: rat aortic smooth muscle cells; test: serum-stimulated proliferation, 3H-thymidine incorporation into DNA; type: cell-based; conditions: 10% fetal calf serum stimulated
Experimental: Inhibition of serum-stimulated proliferation of rat aortic smooth muscle cells is determined as follows: The antiproliferative effect of potential drug is determined by measuring the incorporation of ^3 H-thymidine into cellular DNA. Exposure of quiescent vascular smooth muscle cell to serum, which contains many growth factors, results in a large increase in cellular proliferation as measured by ^3 H-thymidine incorported into DNA. The inhibitory effect of potential drug on serum-stimulated proliferation is tested by adding a drug before the addition of serum and determining if the serum-stimulated proliferation is reduced. […] In that event, antagonizing of the antiproliferative effect of idazoxan is determined by adding antagonist before the addition of idazoxan to serum-stimulated vascular smooth muscle cells.
In this experiment, the proliferation of vascular smooth muscle cells was determined by measuring DNA replication. The incorporation of ^3 H-thymidine into DNA was used to measure the replication of DNA as described in Erlinge, D., et al, Am. J. Physiol. 265, H1089-H1097 (1993) which is incorporated herein by reference.
Rat aortic smooth muscle cells prepared as described in In Vitro Example 1 were plated into 24-well plates at a density of about 30,000 cells/well in 10% fetal calf serum (FCS). […]

## c1ccc(C2CC2)c(OCC2=NCCN2)c1 [Cirazoline, cyclopropyl phenoxy imidazoline]
[1]
  symptoms / restenosis after angioplasty: comparable results, i.e., no restenosis
[2]
  re-elevation of pressure / restenosis of the renal artery: comparable results, i.e., no restenosis
[3]
  Ki: 9.5 ± 0.73 nM
[4]
  symptoms of intermittent claudication: stabilization of symptoms
[5]
  progression and visual symptoms: comparable results, i.e., no restenosis
[6]
  symptoms and restenosis of the vessel: comparable results
[7]
  inhibition of vascular smooth muscle cell proliferation, in words: weakly inhibited

## c1ccc2c(CC3=NCCN3)cccc2c1 [Naphazoline, 2-(1-naphthylmethyl) imidazoline]
[1]
  symptoms / restenosis after angioplasty: comparable results, i.e., no restenosis
[2]
  re-elevation of pressure / restenosis of the renal artery: comparable results, i.e., no restenosis
[3]
  Ki: 45 ± 3.8 nM
[4]
  symptoms of intermittent claudication: stabilization of symptoms
[5]
  progression and visual symptoms: comparable results, i.e., no restenosis
[6]
  symptoms and restenosis of the vessel: comparable results
[7]
  inhibition of vascular smooth muscle cell proliferation, in words: potently inhibited
